Measured values published in the supplement of paper PMC6289059.
The list shows a part of the results. Single values are uncertain, as repeats are few or missing.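 The assay uses human stem cell-derived hepatocyte-like cells whose DGUOK gene was disrupted by CRISPR, modeling liver mtDNA depletion syndrome. ATP signals were scored within each plate, and any drug with a score of at least 3 was called a primary hit.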

Each compound was assayed on DGUOK Δ14/Δ5 iPSC-derived hepatocyte-like cells (SV20) (assay: ATP level (CellTiter-Glo luminescence) Z score relative to plate distribution, under 2-DG glycolysis block; higher = more cellular ATP (rescue of mitochondrial ATP production)). Settings: 5 µM; treatment time: day 15 to day 20 of differentiation (5 days); 2-deoxy-D-glucose: 20 mM for 24 h before assay.
With Cc1nc2sccn2c(=O)c1CCN1CCC(=C(c2ccc(F)cc2)c2ccc(F)cc2)CC1 the ATP level was inactive: -6.45.
O=C1c2c(O)ccc(O)c2C(=O)c2c(NCCNCCO)ccc(NCCNCCO)c21 was tested, and the ATP level was inactive: -35.2.
In the case of CCc1nn(CCCN2CCN(c3cccc(Cl)c3)CC2)c(=O)n1CCOc1ccccc1, the ATP level is reported as inactive: -1.08.
With CCCNC(C)(C)COC(=O)c1ccccc1 the ATP level was inactive: -0.519.
With COc1ccc(C(C)=O)c(OC)c1 the ATP level was inactive: 1.51.
In the case of CC(NCCc1ccc(O)cc1)C(O)c1ccc(O)cc1 (stereo not drawn), the ATP level is reported as inactive: -12.7.
With NC(Cc1ccc(Cl)cc1)C(=O)O (racemic) the ATP level was inactive: 0.578.
For O=C1C=CC2=C3c4cc(O)c(O)cc4CC3(O)COC2=C1O (stereo not drawn), the ATP level was active: 3.76.
In the case of CCC1(C)CC(=O)NC1=O (stereo not drawn), the ATP level is reported as inactive: 1.11.
For NC[C@@H]1O[C@H](O[C@H]2[C@@H](O)[C@H](O[C@@H]3[C@@H](O)[C@H](N)C[C@H](N)[C@H]3O[C@H]3O[C@H](CN)[C@@H](O)[C@H](O)[C@H]3N)O[C@@H]2CO)[C@H](N)[C@@H](O)[C@@H]1O, the ATP level was inactive: 1.32.
In the case of NC1CCN(c2c(F)cc3c(=O)c(C(=O)O)cn(C4CC4)c3c2Cl)C1 (stereo not drawn), the ATP level is reported as inactive: -3.24.
CC(=O)Nc1ccc(OC(C)=O)cc1 was tested, and the ATP level was inactive: 0.259.
With O=[N+]([O-])c1ccc(O)c2ncccc12 the ATP level was inactive: -0.596.
For CCCc1nn(C)c2c(=O)[nH]c(-c3cc(S(=O)(=O)N4CCN(C)CC4)ccc3OCC)nc12, the ATP level was inactive: 1.85.
In the case of CC(O)(CC(=O)O)CC(=O)O, the ATP level is reported as inactive: -10.3.
With CCCCS(=N)(=O)CCC(N)C(=O)O (stereo not drawn) the ATP level was active: 4.12.
For C[C@@H]1CN(c2c(F)c(F)c3c(=O)c(C(=O)O)cn(C4CC4)c3c2F)C[C@H](C)N1, the ATP level was inactive: -1.18.
In the case of CC(=O)Oc1ccc(C(c2ccc(OC(C)=O)cc2)c2ccccn2)cc1, the ATP level is reported as inactive: -3.2.
With CCOC(=O)CC(=O)N1CCSC1COc1ccccc1OC (stereo not drawn) the ATP level was inactive: -0.93.
With N=c1nc(N2CCCCC2)cc(N)n1O the ATP level was inactive: 0.414.
For C[C@@H]1CC[C@@]2(OC1)O[C@H]1C[C@H]3[C@@H]4CC=C5C[C@@H](O)CC[C@]5(C)[C@H]4CC[C@]3(C)[C@H]1[C@@H]2C, the ATP level was inactive: 0.765.
In the case of OCCc1ccccc1, the ATP level is reported as inactive: 0.699.
In the case of O=C(O)c1ccccc1Nc1cccc(C(F)(F)F)c1, the ATP level is reported as inactive: 1.93.
For CC(=O)Nc1ccc(S(=O)(=O)c2ccc(NC(C)=O)cc2)cc1, the ATP level was inactive: -0.151.
For O=C1O[C@H]([C@@H](O)CO)C(O)=C1O, the ATP level was inactive: 0.577.
For Clc1ccc(C(c2ccccc2Cl)C(Cl)Cl)cc1 (stereo not drawn), the ATP level was inactive: -0.802.
For O=C(O)c1ccc2c(c1)OCO2, the ATP level was inactive: -0.464.
For O=C(/C=C/c1ccccc1)c1ccc(O)cc1, the ATP level was inactive: 0.892.
For CN(C)CCOC(=O)C(c1ccccc1)C1(O)CCCC1 (stereo not drawn), the ATP level was inactive: 1.38.
In the case of CCc1cc(Cl)c(OC)c(C(=O)NC[C@@H]2CCCN2CC)c1O, the ATP level is reported as inactive: -0.786.
In the case of C[C@H](N[C@@H](CCc1ccccc1)C(=O)O)C(=O)N1Cc2ccccc2C[C@H]1C(=O)O, the ATP level is reported as inactive: 1.93.
In the case of Nc1ccc(/N=N/c2ccccc2)c(N)n1, the ATP level is reported as inactive: 1.68.
Cc1c(S(=O)(=O)O)oc2c1C(=O)C(=O)c1c-2ccc2c1CCCC2(C)C was tested, and the ATP level was inactive: -0.519.
In the case of NCCCS(=O)(=O)O, the ATP level is reported as inactive: 0.455.
For Nc1nc(/C(=C/CC(=O)O)C(=O)N[C@@H]2C(=O)N3C(C(=O)O)=CCS[C@H]23)cs1, the ATP level was inactive: -1.23.
CC1(C)CC2C1CC[C@]1(C)CCC3C(C(=O)O)CC(=O)O[C@@]32C1 (stereo partly drawn) [3-HYDROXY-4-(SUCCIN-2-YL)-CARYOLANE delta-LACTONE] was tested, and the ATP level was inactive: 1.87.
CCCNC(=O)NS(=O)(=O)c1ccc(Cl)cc1 was tested, and the ATP level was inactive: -11.
CCN(CC)C(C)CN1c2ccccc2Sc2ccccc21 (stereo not drawn) was tested, and the ATP level was inactive: 2.56.
With CC(=O)O[C@]1(C(C)=O)CC[C@H]2[C@@H]3C=C(Cl)C4=CC(=O)CC[C@]4(C)[C@H]3CC[C@@]21C the ATP level was inactive: -5.38.
For Cc1cc(O)c(C(=O)N[C@@H](C(=O)N[C@@H]2C(=O)N3C(C(=O)O)=C(CSc4nnnn4C)CS[C@H]23)c2ccc(O)cc2)cn1, the ATP level was inactive: 1.19.
In the case of CO[C@H]1/C=C/O[C@@]2(C)Oc3c(C)c(O)c4c(O)c(c5c(nc6cc(C)ccn65)c4c3C2=O)NC(=O)/C(C)=C\C=C\[C@H](C)[C@H](O)[C@@H](C)[C@@H](O)[C@@H](C)[C@H](OC(C)=O)[C@@H]1C, the ATP level is reported as inactive: -0.323.
In the case of Clc1cccc(Cl)c1NC1=NCCN1, the ATP level is reported as inactive: -0.0448.
In the case of CCCCCCCCCCCCCCCC(=O)OC[C@H](O)[C@H]1OC(=O)C(O)=C1O, the ATP level is reported as inactive: 2.09.
Nc1nc2c(ncn2COC(CO)CO)c(=O)[nH]1 was tested, and the ATP level was inactive: 1.03.
In the case of NCCCCCC(=O)O, the ATP level is reported as inactive: 1.11.
In the case of CC(=O)OC/C=C(\C)CC/C=C(\C)CC/C=C(\C)CC/C=C(\C)CC/C=C(\C)CC/C=C(\C)CC/C=C(\C)CC/C=C(\C)CCC=C(C)C, the ATP level is reported as inactive: 0.546.
For CN(C)C(=N)NC(=N)N, the ATP level was inactive: 1.58.
CC1CC2C3CCC4=CC(=O)C=CC4(C)C3(F)C(O)CC2(C)C1C(=O)CO (stereo not drawn) was tested, and the ATP level was inactive: 2.1.
In the case of CC=CC(=O)N(CC)c1ccccc1C, the ATP level is reported as inactive: -0.575.
In the case of CNCCc1ccccn1, the ATP level is reported as inactive: 0.83.
For CC1=C(C)C(=O)C(C(CCCCCC(=O)O)c2ccccc2)=C(C)C1=O (stereo not drawn), the ATP level was inactive: 2.06.
C[C@H]1[C@H](C)CC[C@]2(C(=O)O)CC[C@]3(C)C(=CC[C@@H]4[C@@]5(C)CC[C@H](O)C(C)(C)[C@@H]5CC[C@]43C)[C@H]12 was tested, and the ATP level was inactive: -2.94.
In the case of O=C(c1ccc(F)cc1)C1CCN(CCn2c(=O)[nH]c3ccccc3c2=O)CC1, the ATP level is reported as inactive: -0.226.
For CCN(CC)C(=O)c1ccc(O)c(OC)c1, the ATP level was inactive: 1.82.
COc1ccc(-c2cc(=O)c3c(O)c(OC)c(OC)c(OC)c3o2)cc1 was tested, and the ATP level was inactive: -2.83.
In the case of NC1(C(=O)O)CC1, the ATP level is reported as inactive: 0.104.
With Oc1cc2c(cc1O)C1c3ccc(O)c(O)c3OCC1(O)C2 (stereo not drawn) the ATP level was inactive: -0.556.
CC(=O)O[C@@H]1C[C@H]2C(C)(C)C(=O)C=C[C@]2(C)[C@H]2CC[C@@]3(C)[C@H](c4ccoc4)OC(=O)[C@H]4O[C@]43[C@@]21C was tested, and the ATP level was inactive: -13.3.
